No constants are given. Whether binding was seen depends on the method and setting. In cells and extracts the contact can be indirect. For some of these results: Where a sequence is shown, tags or fusion partners need not be part of it.
T1: purified His-tagged Cap fragment protein of Piezo1 (mouse) (UniProt E2JF22)
T1 sequence: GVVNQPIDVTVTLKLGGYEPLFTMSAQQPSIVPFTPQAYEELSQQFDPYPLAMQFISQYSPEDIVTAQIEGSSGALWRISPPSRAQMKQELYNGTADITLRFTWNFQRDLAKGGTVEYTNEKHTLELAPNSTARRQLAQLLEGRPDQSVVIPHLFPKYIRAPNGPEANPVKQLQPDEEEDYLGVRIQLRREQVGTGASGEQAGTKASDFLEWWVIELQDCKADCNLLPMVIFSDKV

Protein sequences, listed by entry. Tags and fused reporters are not part of them. Chains listed by the source or under a name are the forms on record and can include a tag or linker. Residues count along the entry.
Flag-tagged E-cadherin transmembrane region together with the CT (TM-CT), residues 712-886 (F1PAA9, residues 712-885): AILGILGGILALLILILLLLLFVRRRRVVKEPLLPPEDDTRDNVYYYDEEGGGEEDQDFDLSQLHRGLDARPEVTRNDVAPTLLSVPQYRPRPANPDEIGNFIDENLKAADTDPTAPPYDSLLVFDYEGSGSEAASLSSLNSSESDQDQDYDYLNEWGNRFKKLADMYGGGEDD
Flag-tagged E-cadherin cytosolic C-terminal tail (CT), residues 735-886 (F1PAA9, residues 735-885): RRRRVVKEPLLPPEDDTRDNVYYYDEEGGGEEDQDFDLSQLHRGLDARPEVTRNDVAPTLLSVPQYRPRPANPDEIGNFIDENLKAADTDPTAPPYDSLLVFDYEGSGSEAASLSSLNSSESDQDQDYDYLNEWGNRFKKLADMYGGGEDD

B1: purified His-tagged Cap fragment protein of Piezo1 (domain or fragment, UniProt E2JF22 2218-2453)
chain: T1 sequence

Legend:
[1] = biological target: Piezo1-GST fusion protein (Piezo1-pp-GST-IRES-GFP construct) (mouse) (UniProt E2JF22); assay: pull-down
[2] = biological target: T1, purified His-tagged Cap fragment protein of Piezo1 (mouse); assay: pull-down
[3] = biological target: Flag-tagged E-cadherin cytosolic C-terminal tail (CT), residues 735-886 (canine) (UniProt F1PAA9); assay: co-IP
[4] = biological target: Flag-tagged E-cadherin transmembrane region together with the CT (TM-CT), residues 712-886 (canine) (UniProt F1PAA9); assay: co-IP

| Molecule | binding [1] | binding [2] | binding [3] | binding [4] |
| --- | --- | --- | --- | --- |
| Flag-tagged E-cadherin cytosolic C-terminal tail (CT), residues 735-886 (from UniProt F1PAA9 735-885) (domain or fragment) | no binding | no binding | – | – |
| B1 | – | – | no binding | no binding |
